Results on one sequence are retold here after US9637519B2 (CAREGEN CO., LTD., priority 2013, dated 2017).

Ends that are not written are not given here.

The data set is described as follows: general procedure: peptide synthesis; chloro trityl chloride resin. Particulars: whole synthesis.

Consider WVPYQARVPYPR, for which the crude mass was 0.85 g. Besides, the crude yield (scale of the general procedure 700 mg resin) came to 89.9%.
